No constants are given. Whether binding was seen depends on the method and setting. Binding seen in cells or lysates may run through a third protein. Here binding means that the protein was enriched with, or labelled near, the bait; the list need not be complete.
Target: S. japonicum GST-HPV-16 E7 chimeric protein (Human Papillomavirus 16 (HPV-16)) (UniProt P03129)
Test: affinity purification with mass spectrometry; 1.5 µg GST-HPV-16 E7 (or S.j GST alone) added to HaCaT cell lysate (50 mM Tris-Cl pH 7.4, 5 mM EDTA, 250 mM NaCl, 0.1% Triton X-100), 100 min at 4°C; collected on glutathione-Sepharose 4B; SDS-PAGE, silver staining; band identified by MALDI-ToF peptide mass fingerprinting; only the target purified

Sequences of proteins named here, by UniProt entry; tags and fusion partners are left off.
UniProt P09211: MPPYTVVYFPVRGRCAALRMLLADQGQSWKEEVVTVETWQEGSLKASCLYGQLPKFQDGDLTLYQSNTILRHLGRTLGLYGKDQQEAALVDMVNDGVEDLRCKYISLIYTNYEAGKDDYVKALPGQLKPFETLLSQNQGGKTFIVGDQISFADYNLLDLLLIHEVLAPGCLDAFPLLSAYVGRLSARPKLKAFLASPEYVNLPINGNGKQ

glutathione S-transferase P1-1 (GSTP1), endogenous (from UniProt P09211 1-210)
binding: binds

From article PMC2758704
